Data taken from patent publication US20250263409A1, “FGFR2 INHIBITOR COMPOUNDS” (ELI LILLY AND COMPANY, priority 2022, published 2025).
Some of these results come from one statement about several compounds together.

The chains behind the UniProt entries cited, without tags or fusion partners. Residues count along the entry.
UniProt P11362, 22-822: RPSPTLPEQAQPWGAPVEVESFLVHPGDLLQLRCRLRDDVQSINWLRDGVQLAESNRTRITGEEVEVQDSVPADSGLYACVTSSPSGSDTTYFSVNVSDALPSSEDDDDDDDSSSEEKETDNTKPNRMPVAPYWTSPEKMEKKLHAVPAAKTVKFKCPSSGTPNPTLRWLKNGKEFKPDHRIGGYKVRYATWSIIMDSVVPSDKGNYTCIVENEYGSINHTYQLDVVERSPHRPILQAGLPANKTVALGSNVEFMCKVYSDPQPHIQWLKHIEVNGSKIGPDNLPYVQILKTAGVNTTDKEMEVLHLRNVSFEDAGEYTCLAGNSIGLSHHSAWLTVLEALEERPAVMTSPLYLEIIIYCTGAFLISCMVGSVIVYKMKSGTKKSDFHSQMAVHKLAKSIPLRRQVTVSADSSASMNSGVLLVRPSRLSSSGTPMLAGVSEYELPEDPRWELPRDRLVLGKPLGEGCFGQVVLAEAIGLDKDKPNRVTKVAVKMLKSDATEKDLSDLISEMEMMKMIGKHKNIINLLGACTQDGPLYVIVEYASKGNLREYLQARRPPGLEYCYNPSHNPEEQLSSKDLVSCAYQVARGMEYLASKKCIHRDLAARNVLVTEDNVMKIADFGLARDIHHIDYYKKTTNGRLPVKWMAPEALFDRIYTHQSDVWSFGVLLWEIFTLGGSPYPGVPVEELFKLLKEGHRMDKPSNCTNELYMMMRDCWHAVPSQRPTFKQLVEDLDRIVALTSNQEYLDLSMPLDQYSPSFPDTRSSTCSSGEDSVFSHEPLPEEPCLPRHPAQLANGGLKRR

Molecular target: T1, human wild type FGFR1 (Homo sapiens, UniProt P11362)
T1 construct: expressed in transfected cells; host or cells: HEK293
Experiment: FGFR1 cell-based assay (phospho-FGFR positive cells)
Settings: dox-inducible HEK293 cells; IC50 FGFR1 divided by IC50 FGFR2

In the case of Cc1c(-c2cc(OCC(O)c3ccc(F)cn3)c3c(C#N)cnn3c2)nnn1C1C[C@H]2CC[C@@H](C1)N2C1COC1 (stereo partly drawn) [Example 71, 4-[2-(5-Fluoro-2-pyridyl)-2-hydroxy-ethoxy]-6-[5-methyl-1-[(1S,5R)-8-(oxetan-3-yl)-8-azabicyclo [3.2.1]octan-3-yl]triazol-4-yl]triazolo[1,5-a]pyridine-3-carbonitrile], the “fold more selective for FGFR2 than for FGFR1, cell-based assays” value is reported as “at least 5 fold”.
